No constants are given. Whether binding was seen depends on the method and setting. Binding seen in cells or lysates may run through a third protein. These calls come from enrichment with a bait or labelling near it, and not all partners need be listed.
Molecular target: T1, OLIG2 (mouse (endogenous in cultured mouse OL lineage cells)) (UniProt Q9EQW6)
T1 sequence: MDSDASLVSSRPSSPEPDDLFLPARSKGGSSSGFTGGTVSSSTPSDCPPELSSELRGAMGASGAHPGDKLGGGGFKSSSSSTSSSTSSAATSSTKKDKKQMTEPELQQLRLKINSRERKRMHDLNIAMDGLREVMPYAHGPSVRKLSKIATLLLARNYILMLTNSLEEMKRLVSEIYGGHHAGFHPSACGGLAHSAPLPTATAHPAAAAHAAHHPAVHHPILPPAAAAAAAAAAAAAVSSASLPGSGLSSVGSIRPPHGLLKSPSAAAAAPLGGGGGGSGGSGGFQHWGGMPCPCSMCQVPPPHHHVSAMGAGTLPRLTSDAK
Experiment: affinity purification with mass spectrometry; RIME (rapid immunoprecipitation mass spectrometry of endogenous protein): endogenous OLIG2 precipitated with rabbit anti-OLIG2 (AB9610, Millipore) from 1 x 10^7 OL-differentiated mouse NSCs; rabbit pre-immune IgG as control; three replicates per group; on-bead trypsin digestion

Chains of the proteins cited; added tags and fusions are not shown.
UniProt Q6ZPV2: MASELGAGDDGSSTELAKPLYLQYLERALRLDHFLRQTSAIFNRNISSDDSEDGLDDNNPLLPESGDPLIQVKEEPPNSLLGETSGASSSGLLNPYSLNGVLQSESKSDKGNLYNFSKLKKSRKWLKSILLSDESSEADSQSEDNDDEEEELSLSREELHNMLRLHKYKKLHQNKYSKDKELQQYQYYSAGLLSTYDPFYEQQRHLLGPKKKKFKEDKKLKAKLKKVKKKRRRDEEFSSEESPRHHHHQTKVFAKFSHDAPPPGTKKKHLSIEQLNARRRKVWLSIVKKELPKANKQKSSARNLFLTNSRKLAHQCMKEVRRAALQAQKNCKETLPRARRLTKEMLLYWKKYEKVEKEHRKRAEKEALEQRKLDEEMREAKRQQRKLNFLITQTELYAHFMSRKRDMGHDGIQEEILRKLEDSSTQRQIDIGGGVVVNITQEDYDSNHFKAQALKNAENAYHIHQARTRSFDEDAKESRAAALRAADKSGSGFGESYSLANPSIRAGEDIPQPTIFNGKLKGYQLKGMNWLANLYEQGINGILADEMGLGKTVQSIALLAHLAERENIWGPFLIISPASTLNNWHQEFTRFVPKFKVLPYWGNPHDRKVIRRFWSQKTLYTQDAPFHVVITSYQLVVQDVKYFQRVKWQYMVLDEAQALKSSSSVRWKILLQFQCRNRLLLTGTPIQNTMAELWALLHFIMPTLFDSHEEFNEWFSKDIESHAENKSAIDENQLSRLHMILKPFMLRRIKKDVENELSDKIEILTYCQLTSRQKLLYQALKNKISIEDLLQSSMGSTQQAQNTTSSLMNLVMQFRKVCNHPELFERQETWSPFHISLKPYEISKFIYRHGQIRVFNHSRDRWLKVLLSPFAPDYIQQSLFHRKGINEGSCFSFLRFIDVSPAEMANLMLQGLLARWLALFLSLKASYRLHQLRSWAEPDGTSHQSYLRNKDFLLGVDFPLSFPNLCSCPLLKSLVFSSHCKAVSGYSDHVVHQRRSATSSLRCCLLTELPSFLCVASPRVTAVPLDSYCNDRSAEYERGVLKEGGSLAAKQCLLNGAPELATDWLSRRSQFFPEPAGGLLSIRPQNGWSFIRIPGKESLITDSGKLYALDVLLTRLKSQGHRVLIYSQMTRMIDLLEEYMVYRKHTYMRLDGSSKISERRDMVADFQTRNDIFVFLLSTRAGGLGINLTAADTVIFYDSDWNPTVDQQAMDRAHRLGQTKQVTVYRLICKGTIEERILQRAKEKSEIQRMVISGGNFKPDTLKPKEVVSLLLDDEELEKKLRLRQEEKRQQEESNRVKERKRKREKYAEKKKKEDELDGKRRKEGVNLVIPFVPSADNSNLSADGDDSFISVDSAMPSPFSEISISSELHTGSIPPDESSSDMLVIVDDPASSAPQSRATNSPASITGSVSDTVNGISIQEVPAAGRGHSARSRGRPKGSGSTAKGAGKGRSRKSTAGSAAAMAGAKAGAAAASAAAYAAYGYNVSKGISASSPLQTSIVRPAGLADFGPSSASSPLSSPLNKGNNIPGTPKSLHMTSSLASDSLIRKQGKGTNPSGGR

INO80 (from UniProt Q6ZPV2 1-1559)
binding: binds

Source: article PMC12012327
